Laboratory results reported in PubChem BioAssay AID1487 (National Center for Advancing Translational Sciences (NCATS), 2009).
Where “and” joins values, the source holds several entries; their conditions need not be identical. Equal entries are not always repeated. This is one part of the list. Shown are side measurements of this screen, not its main read-out; they come without a call. The list favours compounds with an active or inconclusive main result. The note in brackets gives the kind of curve behind each potency; many fits are weak.

Assay: qHTS Assay for Modulators of Lamin A Splicing
Details: HeLa LMNA splicing GFP/RFP minigene ratio, 48 h
Outline: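 S3 HeLa cells stably expressing lamin A-EGFP splicing minigene plus DsRed2, 600 cells/well, 48 h compound exposure at 37C. Laser-scanning cytometry; analysed as GFP (500-530 nm)/RFP (575-640 nm) total intensity ratio; 0.5% DMSO vehicle.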

[1] = measured here: RFP viability control channel
[2] = measured here: GFP splicing reporter channel

SMILES	AC50 [1]	AC50 [2]
C=CCn1c(O)c(C(CC)=NCc2cc(OC)cc(OC)c2)c(=O)[nH]c1=O	14.1 µM [rising, single point]	–
CS(=O)(=O)c1ccc([C@H](O)[C@H](CF)NC(=O)C(Cl)Cl)cc1	14.1 µM [rising, single point]	–
CCCC1(CCC)C(=O)NC(=NCc2ccccc2)NC1=O	15.8 µM [falling, single point]	14.1 µM [falling, single point]
Cc1cc(C(=O)CS(=O)c2ccc(F)cc2)cc(C)c1OC(=O)N(C)C (centres undefined)	14.1 µM [falling, partial curve, poor fit]	–
C[N+]1(C)C2CC(OC(=O)C(CO)c3ccccc3)CC1C1OC12 (centres undefined)	–	3.55 µM [rising, single point]
CN1C[C@H](C(=O)N[C@]2(C)O[C@@]3(O)C4CCCN4C(=O)[C@H](Cc4ccccc4)N3C2=O)C[C@@H]2c3cccc4[nH]cc(c34)C[C@H]21 (some centres undefined)	0.141 µM [rising, full curve, poor fit]	12.6 µM [rising, partial curve] and 1.78 µM [rising, partial curve, poor fit]
CN1CCC(N(C)c2nc(-c3ccc([N+](=O)[O-])cc3)nc3ccccc23)CC1	15.8 µM [rising, single point]	–
FC(F)=C(F)CCSc1ncn[nH]1	–	2.51 µM [falling, partial curve, poor fit]
CCCC(C)(COC(N)=O)COC(N)=O	0.447 µM [falling, partial curve]	0.141 µM [falling, full curve, poor fit]
CC1=NCCc2c1[nH]c1cc(O)ccc21	0.0562 µM [falling, full curve, poor fit]	–
C[C@]12C=CC(=O)N[C@@H]1CC[C@@H]1C2CC[C@]2(C)C(C(=O)Nc3cc(C(F)(F)F)ccc3C(F)(F)F)CC[C@@H]12 (some centres undefined)	0.316 µM [rising, partial curve]	–
OC1(c2ccc(Cl)cc2)CCN(Cc2c[nH]c3ccccc23)CC1	0.00891 µM [falling, full curve, poor fit]	–
Cc1ccc(S(=O)(=O)N2CCCCC2)cc1NC(=O)CSc1ncnc2ccccc12	15.8 µM [rising, partial curve]	–
CN1CCN(C(=S)SCC(=O)Nc2ccc(Cl)cc2C(=O)c2ccccc2)CC1	22.4 µM [rising, single point]	22.4 µM [rising, single point]
CC(=NCCN1CCOCC1)c1c(O)n(C2CCCCC2)c(=O)[nH]c1=O	–	35.5 µM [rising, single point]

Quoted at random: 2 compounds from above, in no set order.
SMILES	AC50 [1]	AC50 [2]
Cc1ccc(S(=O)(=O)N2CCCCC2)cc1NC(=O)CSc1ncnc2ccccc12	15.8 µM [rising, partial curve]	–
CN1CCN(C(=S)SCC(=O)Nc2ccc(Cl)cc2C(=O)c2ccccc2)CC1	22.4 µM [rising, single point]	22.4 µM [rising, single point]
